These are yes or no findings as the source states them, for the method shown. Binding seen in cells or lysates may run through a third protein. Some results given as binding are weak or reduced against the parent protein; the word gives no strength.
Target: mTurquoise-eIF4A1 wild-type (FRET donor) (human) (UniProt P60842)
Test: FRET or BRET; FLIM-FRET in live HeLa cells 48 h after co-transfection of mTurquoise- (donor) and mCitrine- (acceptor) tagged eIF4A1; donor lifetime, frequency domain, excitation 436 nm

Amino acid sequences for entries named in this document (tags omitted). A change or cut given only in a name is not applied to a line headed by its entry. Chains listed by the source or under a name are the forms on record and can include a tag or linker.
UniProt P60842: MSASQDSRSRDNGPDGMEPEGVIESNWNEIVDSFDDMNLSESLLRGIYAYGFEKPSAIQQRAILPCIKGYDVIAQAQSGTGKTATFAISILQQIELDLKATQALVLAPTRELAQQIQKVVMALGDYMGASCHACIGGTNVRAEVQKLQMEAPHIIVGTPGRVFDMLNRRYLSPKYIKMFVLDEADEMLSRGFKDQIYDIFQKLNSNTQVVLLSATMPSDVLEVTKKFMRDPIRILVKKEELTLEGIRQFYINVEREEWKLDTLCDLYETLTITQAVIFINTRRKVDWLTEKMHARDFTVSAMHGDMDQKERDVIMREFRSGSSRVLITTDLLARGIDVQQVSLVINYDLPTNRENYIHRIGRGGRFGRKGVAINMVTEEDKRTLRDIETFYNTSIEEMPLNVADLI
mCitrine-eIF4A1^DQAD (FRET acceptor) (P60842, form named): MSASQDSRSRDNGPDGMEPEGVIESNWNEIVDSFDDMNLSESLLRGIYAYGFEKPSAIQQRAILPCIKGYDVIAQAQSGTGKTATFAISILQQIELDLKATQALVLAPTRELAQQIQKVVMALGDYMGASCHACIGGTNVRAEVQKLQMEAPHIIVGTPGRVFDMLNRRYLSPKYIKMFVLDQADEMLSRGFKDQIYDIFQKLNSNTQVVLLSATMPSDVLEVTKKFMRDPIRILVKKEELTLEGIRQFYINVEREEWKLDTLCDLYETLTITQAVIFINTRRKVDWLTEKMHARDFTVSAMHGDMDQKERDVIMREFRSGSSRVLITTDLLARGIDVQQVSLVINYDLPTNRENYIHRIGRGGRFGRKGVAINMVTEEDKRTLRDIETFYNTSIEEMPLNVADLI

binding: binds
Substance: mCitrine-eIF4A1^DQAD (FRET acceptor) (from UniProt P60842 1-406) (enzyme)

Reference: PMC9976904
